At least one structure is not confirmed: it was looked up by name or label, or the drawing left a doubt.
Test system: two-dimensional intestinal stem cell population
Assay: Subculture of two-dimensional intestinal stem cells, engraftment / cell number
Type: cell-based, human
Settings: factor removed from culture medium, FIG. 12
Description: The three-dimensional intestinal organoids were isolated from a Matrigel dome and the remaining three-dimensional intestinal organoids were removed as much as possible by pipetting. The separated organoids were placed in 1 ml of 0.25% trypsin-EDTA (TE, Invitrogen) and incubated at 37° C. a water bath for about 5 minutes. Then, pipetting was performed less than five times so that the organoids were allowed to be isolated into single cells and small clumps, and a basal medium was added so that the total volume thereof was 10 ml. The cells fed into a centrifuge were placed on culture dishes coated with feeder cells or 1% of Matrigel (Corning). […]
The two-dimensional intestinal stem cell population was plated on a culture dish coated with 1% of Matrigel and then cultured for 2 to 7 days. […] After centrifugation, a medium was added to isolate the cells into single cells, and then the number of cells was measured using CountessIII cell counter (Thermo Scientific. Inc.).

SMILES: CSCCC(NC(=O)C(Cc1c[nH]c2ccccc12)NC(=O)CNC(=O)C(Cc1ccc(O)cc1)NC(=O)C(C)NC(=O)C(CCC(=O)O)NC(=O)C(CCC(=O)O)NC(=O)C(CCC(=O)O)NC(=O)[C@H](CCC(=O)O)NC(=O)[C@H](CCC(=O)O)NC(=O)[C@H](CC(C)C)NC(=O)[C@H](Cc1c[nH]c2ccccc12)NC(=O)[C@@H]1CCCN1C(=O)CNC(=O)[C@@H](N)CCC(=O)O)C(=O)NC(CC(=O)O)C(=O)NC(Cc1ccccc1)C(N)=O (stereo in doubt) [Gastrin]
- need for long-term subculturing: required to more efficiently perform long-term culturing

Source: patent publication US20250215397A1, “TWO-DIMENSIONAL CULTURE METHOD HAVING CLEAR CHEMICAL COMPOSITION FOR CULTURING THREE-DIMENSIONAL INTESTINAL ORGANOID-DERIVED INTESTINAL STEM CELL AGGREGATE” (KOREA RESEARCH INSTITUTE OF BIOSCIENCE AND BIOTECHNOLOGY, priority 2022, published 2025)
